Test results reported in patent publication US20120258920A1.
No constants are given. Whether binding was seen depends on the method and setting. In cells and extracts the contact can be indirect. Some binding calls cover weakened binding; strength is not graded here. Where a sequence is shown, tags or fusion partners need not be part of it.

T1: p63 (human) (UniProt Q9H3D4)
T1 sequence (looked up): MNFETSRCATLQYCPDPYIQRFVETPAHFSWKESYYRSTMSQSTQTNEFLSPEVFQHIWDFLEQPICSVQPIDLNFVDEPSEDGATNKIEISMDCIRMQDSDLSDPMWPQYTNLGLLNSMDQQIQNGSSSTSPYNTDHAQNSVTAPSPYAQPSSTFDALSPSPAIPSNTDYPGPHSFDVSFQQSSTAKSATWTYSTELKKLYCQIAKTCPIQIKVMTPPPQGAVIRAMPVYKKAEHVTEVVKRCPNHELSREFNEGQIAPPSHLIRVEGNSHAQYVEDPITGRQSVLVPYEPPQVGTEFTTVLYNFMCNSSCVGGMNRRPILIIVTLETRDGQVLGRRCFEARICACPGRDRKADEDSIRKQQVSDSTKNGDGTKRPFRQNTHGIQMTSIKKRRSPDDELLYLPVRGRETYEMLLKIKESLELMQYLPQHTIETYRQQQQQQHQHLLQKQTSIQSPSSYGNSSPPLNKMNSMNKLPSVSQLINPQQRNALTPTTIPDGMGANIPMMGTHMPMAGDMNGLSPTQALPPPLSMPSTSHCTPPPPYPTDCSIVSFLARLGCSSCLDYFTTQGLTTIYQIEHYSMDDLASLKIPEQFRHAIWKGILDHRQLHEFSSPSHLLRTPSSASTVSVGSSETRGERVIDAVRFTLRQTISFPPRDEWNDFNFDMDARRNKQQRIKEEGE

T2: HA-TAp73α (human) (UniProt O15350)
T2 sequence (looked up): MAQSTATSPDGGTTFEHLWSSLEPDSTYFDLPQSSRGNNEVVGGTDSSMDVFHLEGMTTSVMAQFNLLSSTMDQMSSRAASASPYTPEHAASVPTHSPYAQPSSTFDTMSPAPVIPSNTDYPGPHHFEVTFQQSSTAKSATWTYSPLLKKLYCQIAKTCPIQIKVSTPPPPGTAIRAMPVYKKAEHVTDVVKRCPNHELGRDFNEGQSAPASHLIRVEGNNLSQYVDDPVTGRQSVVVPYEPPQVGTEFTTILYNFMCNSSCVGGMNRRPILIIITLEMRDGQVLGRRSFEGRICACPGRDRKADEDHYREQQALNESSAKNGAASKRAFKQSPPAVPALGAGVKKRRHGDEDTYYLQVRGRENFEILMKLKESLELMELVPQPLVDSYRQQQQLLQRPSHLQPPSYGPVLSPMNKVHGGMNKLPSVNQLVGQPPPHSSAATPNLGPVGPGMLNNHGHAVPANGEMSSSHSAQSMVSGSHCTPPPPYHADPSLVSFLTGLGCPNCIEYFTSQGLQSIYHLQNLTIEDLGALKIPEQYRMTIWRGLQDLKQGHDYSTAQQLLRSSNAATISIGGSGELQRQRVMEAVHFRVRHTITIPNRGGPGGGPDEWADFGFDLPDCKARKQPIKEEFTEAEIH


What was measured:
p63 (human) = biological target: T1, p63 (human); experiment: co-immunoprecipitation (data not shown)
HA-TAp73α (human) = biological target: T2, HA-TAp73α (human); experiment: co-immunoprecipitation with anti-GFP antibody from co-transfected H1299 cells, Western Blot with anti-HA

binding (p63 (human)) | binding (HA-TAp73α (human)) | Binder
binds | binds | DVADWESCGEYWCYRV (designed binder, not shown: large carriers; small tags and cut ends) [EGFP-TNV-sA79]
binds | binds | VWAESCDDCGEYWRYV (designed binder, not shown: large carriers; small tags and cut ends) [EGFP-TNV-A79]
binds | binds | GPVVPRTQYMSLAFGW (designed binder, not shown: large carriers; small tags and cut ends) [EGFP-TNV-A29]
binds | binds | AKYCQCAAKVRVTAAM (designed binder, not shown: large carriers; small tags and cut ends) [EGFP-TNV-A3]
binds | binds | IQITLTGWSARVTTSG (designed binder, not shown: large carriers; small tags and cut ends) [EGFP-TNV-A60]
